US20210130417A1 (University of Notre Dame du Lac, priority 2017, published 2021)
Strings that start with PEPTIDE1 are HELM notation: dots part the residues, brackets hold end groups and non-standard residues.

Test: peptide made by a vendor
Conditions: whole synthesis

## PEPTIDE1{L.S.L.I.A.A.A.G.K.E.T.I.R.Q.Y.L.K.N.E.I.K.K.K.G.R.K.A.V.I.A.W}$$$$V2.0
  purity (crude or final not stated): 95%
